Measured values: US20090060919A1
These are yes or no findings as the source states them, for the method shown.

Columns and labels:
Test in all cases: condition: competitor series starting at approximately 1000:1 over biotinylated human IgE; DELFIA epitope competition, immobilised IgG, biotinylated IgE
[1] = molecular target: purified IgM (Calbiochem) (human)
[2] = molecular target: purified IgD (Calbiochem) (human)
[3] = molecular target: purified IgG (Calbiochem) (human)
[4] = molecular target: purified IgA (Calbiochem) (human)

binding [1]: no binding
binding [2]: no binding
binding [3]: no binding
binding [4]: no binding
B1: Antibody 1 IgG (antibody, V domains shown)
VH: QVQLVQSGAEVKKPGATVKLSCKVYGYIFTDYNIYWVRQAPGKGLEWMGLIDPDNGETFYAEKFQGRATMTADTSSDRAYMELTSLTFEDTATYYCATVLHRRLKGGYDYWGRGTLVTVSS
VL: QSVLTQPPSVSGAPGQRVTISCTGSSSNIGAGYDVHWYQQLPGTAPKLLIYDNFNRPSGVPDRFSGSKSGTSASLAIIGLQTEDEADYYCQSYDSSLSGSLFGTGTKLTVL
